Assay [1] concerns the target biotinylated recombinant human trimeric ARG2 enzyme (Avi-huARG2-His10) (human). Description: HTRF direct binding, purified scFv.
The target is the same in assay [2]. The experiment in a line: HTRF direct binding assay, biotinylated recombinant human trimeric ARG2, streptavidin cryptate and anti-c-myc-XL665, % Delta F. In general terms: In TR-FRET formats the signal depends on donor and acceptor labels being close together.

The values below come from patent US20220403048A1, “BINDING MOLECULES TO ARGINASE II [ARG2]” (Cancer Research Technology Limited, priority 2019, published 2022).

Results are given in words; binding and its absence hold for the method and conditions named. Binding calls can cover weak binding; strength is not graded here.

B1: C0020065 scFv (scFv, V domains shown)
VH: GVNLRESGGGVVQPGRSLRLSCAASGFTFSSYAMHWVRQAPGKGLEWVAVISYDGSNKYYVDSVKGRFTISRDNSKNTLYLQMNSLRAEDTAVYYCARDSSQLWFDYWGRGTLVTVSS
VL: QSVVTQPPSVSGAPGQRVTISCTGSSSNIGTGYDVHWYQQLPGTAPKLLIYGNSNRPSGVPDRFSGSKSGTSASLAITGLQAEDEADYYCQSYDSSLSGSVVFGGGTQLTVL
For B1, the binding result in assay [1] and in assay [2] was “binds” each time.
